{"sequences": {"note": "Amino acid sequences for entries named in this document (tags omitted).", "UniProt O08760": "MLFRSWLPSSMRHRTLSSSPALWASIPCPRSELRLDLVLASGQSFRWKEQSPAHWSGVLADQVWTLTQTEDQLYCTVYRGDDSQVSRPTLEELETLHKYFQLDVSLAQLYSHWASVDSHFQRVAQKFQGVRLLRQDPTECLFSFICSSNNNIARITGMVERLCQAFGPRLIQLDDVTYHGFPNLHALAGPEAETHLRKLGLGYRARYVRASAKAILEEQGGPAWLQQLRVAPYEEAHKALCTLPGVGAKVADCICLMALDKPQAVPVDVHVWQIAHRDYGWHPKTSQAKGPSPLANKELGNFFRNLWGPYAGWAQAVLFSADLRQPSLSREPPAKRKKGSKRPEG"}, "source": "paper doi:10.1101/2024.09.13.612834", "target": "T1, Xeroderma Pigmentosum Complementation Group C (XPC) protein (mouse (endogenous in Th17 cells)) (UniProt P51612)", "T1 sequence": "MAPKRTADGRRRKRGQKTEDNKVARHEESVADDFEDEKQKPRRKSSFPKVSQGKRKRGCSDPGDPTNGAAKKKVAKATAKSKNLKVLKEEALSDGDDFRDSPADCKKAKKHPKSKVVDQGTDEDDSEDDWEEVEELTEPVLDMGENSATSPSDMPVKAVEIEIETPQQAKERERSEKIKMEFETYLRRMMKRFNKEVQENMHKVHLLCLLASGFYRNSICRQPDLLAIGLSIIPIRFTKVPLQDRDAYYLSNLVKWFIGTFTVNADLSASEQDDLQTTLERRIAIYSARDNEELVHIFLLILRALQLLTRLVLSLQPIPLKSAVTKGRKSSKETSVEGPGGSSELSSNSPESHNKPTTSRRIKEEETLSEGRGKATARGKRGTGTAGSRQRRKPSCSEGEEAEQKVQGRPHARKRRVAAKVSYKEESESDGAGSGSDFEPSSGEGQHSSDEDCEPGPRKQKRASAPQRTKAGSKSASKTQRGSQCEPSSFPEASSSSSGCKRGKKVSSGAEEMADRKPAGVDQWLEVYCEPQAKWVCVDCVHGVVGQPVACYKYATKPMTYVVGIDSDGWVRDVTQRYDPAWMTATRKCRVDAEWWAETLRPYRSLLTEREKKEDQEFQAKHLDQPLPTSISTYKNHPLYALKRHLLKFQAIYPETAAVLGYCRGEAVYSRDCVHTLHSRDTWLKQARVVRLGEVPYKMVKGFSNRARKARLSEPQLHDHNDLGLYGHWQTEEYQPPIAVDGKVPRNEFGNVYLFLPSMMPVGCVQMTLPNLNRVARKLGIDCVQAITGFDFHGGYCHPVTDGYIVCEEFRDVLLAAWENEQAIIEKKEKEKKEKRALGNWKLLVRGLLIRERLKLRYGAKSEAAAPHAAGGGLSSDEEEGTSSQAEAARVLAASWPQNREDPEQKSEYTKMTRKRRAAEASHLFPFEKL", "experiment": "co-IP", "note": "These are yes or no findings as the source states them, for the method shown. Binding seen in cells or lysates may run through a third protein. Some results given as binding are weak or reduced against the parent protein; the word gives no strength.", "data": [{"substance": "OGG1 (from UniProt O08760 1-345) (enzyme)", "values": [{"measurement": "binding", "result": "binds"}]}]}
